Some of these results come from one statement about several compounds together.
Test system: GlyA depleted CB MNC
Experiment: FACS lectin staining of GlyA depleted CB MNC
Assay type: binding, human

B1: PNA: peanut lectin, Gal/GalNAc structures (protein, UniProt P02872 24-273, looked up)
Galactose-binding lectin: AETVSFNFNSFSEGNPAINFQGDVTVLSNGNIQLTNLNKVNSVGRVLYAMPVRIWSSATGNVASFLTSFSFEMKDIKDYDPADGIIFFIAPEDTQIPAGSIGGGTLGVSDTKGAGHFVGVEFDTYSNSEYNDPPTDHVGIDVNSVDSVKTVPWNSVSGAVVKVTVIYDSSTKTLSVAVTNDNGDITTIAQVVDLKAKLPERVKFGFSASGSLGGRQIHLIRSWSFTSTLITTTRRSIDNNEKKIMNMASA
For B1, the “decrease of staining in GlyA depleted CB MNC compared to CB MNC fraction” value was “less than 23%”.

Reference: patent publication US20100068806A1, “NOVEL METHODS AND REAGENTS DIRECTED TO PRODUCTION OF CELLS” (SUOMEN PUNAINEN RISTI, VERIPALVELU, priority 2007, published 2010)
